Among the data in paper PMC7926980, “The Antiproliferative and Apoptotic Effect of a Novel Synthesized S-Triazine Dipeptide Series, and Toxicity Screening in Zebrafish Embryos” (Molecules, 2021) are IC50 values, retold here.

A word on the IC50: it is the point on the concentration scale where inhibition reaches its midpoint. Low readings indicate greater potency in that assay, high ones weaker potency in that assay.

This experiment deals with MDA-MB-231 cells. In words: MTT cell viability assay, MDA-MB-231. The settings on record: Homo sapiens, 72 h treatment. It is filed as cell-based. As to the method:
The antiproliferative activity of the synthesized compounds was evaluated by the 3-(4,5-dimethylthiazol-2-yl)-2,5-diphenyl tetrazolium bromide (MTT) cell viability assay. Two types of breast cancer cell lines—namely MCF-7, which has estrogen and progesterone receptors, and MDA-MB-231, which is triple negative—were used, in addition to a colon cancer cell line (HCT-116). […] Overall, the morpholine-containing compounds tended to show greater activity than the piperidine-containing compounds in the MCF-7 cell line. In this regard, it is important to highlight compound 3a, the activity of which was below µM.
The target products 3a–o were evaluated for their antiproliferative activity using the MTT viability assay of the MCF-7, MDA-MB-231 and HCT-116 cell lines (in triplicate) on at least three independent occasions for the determination of the reported mean values. […]
In order to calculate the relative IC50 values, the antiproliferative effect of compounds 3a–o was tested in three cancer cell lines (MCF-7, MDA-MB-231, HCT-116) and normal epithelial embryonic kidney cells (HEK-293) using the MTT viability assay. […] The absorbance was detected with a microplate reader at 570 nm. The results were expressed as a percentage of viability relative to the vehicle control (100%). […]
(Tetrazolium assays rely on reduction of a dye to a coloured formazan, in cell work by metabolically active cells.)

For the compound `CC/C(=C(\c1ccccc1)c1ccc(OCCN(C)C)cc1)c1ccccc1` [Tamoxifen, reference compound], the IC50 was 15.01 ± 0.12 µM.
